The target in this experiment is β-lactamase (BLA). Nature of the experiment: ELISA, antigen-coated wells, 500 nM gastrobody, detected with polyclonal anti-SBTI antibody. A general note: An ELISA detects its analyte on a solid surface through an enzyme-linked reagent.

Results are given in words; binding and its absence hold for the method and conditions named. Tags and fused reporters may be left off the sequences shown.

B1: His6-Thrombin site-SpyTag003-SBTI (wild-type SBTI) (protein, not shown: small tags and cut ends)
chain: DFVLDNEGNPLENGGTYYILSDITAFGGIRAAPTGNERCPLTVVQSRNELDKGIGTIISSPYRIRFIAEGHPLSLKFDSFAVIMLCVGIPTEWSVVEDLPEGPAVKIGENKDAMDGWFRLERVSDDEFNNYKLVFCPQQAEDDKCGDIGISIDHDDGTRRLVVSKNKPLVVQFQKLDKESL
With B1, the binding result is recorded as “no binding (tested: 500 nM)”.

Values taken from US20240327495A1.
